According to the supplement of paper PMC7661543:
Differences between knockout arms are mostly noise.

What was measured:
Assay in all cases: relative cell number vs DMSO control (72 h) (% of DMSO); higher = less growth inhibition (more cells)
ZR-75-1 = test system: ZR-75-1
Method: (§1)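 QMAP-Seq: a pool of 5 breast cancer cell lines (ZR-75-1, SKBR3, HCC-38, MDA-MB-231, BT-20), each carrying 12 doxycycline-inducible Cas9 sgRNA perturbations (11 knockouts plus non-targeting sgNT), was treated with compounds for 72 h at four 10-fold doses (10 nM-10 uM or 1 nM-1 uM range). Barcodes were amplified and sequenced, and cell number was interpolated from 293T spike-in standard curves. The result is expressed as % of the median of DMSO wells. Two biological replicates.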

SKBR3 = test system: SKBR3
Method: as §1

MDA-MB-231 = test system: MDA-MB-231
Method: as §1

CCCc1nn(C)c2c(=O)[nH]c(-c3cc(S(=O)(=O)N4CCN(C)CC4)ccc3OCC)nc12 [Sildenafil]
relative cell number
Conditions	MDA-MB-231	SKBR3	ZR-75-1
sgRNA knockout: sgATF3, 10 nM	105	80.8	83.6
sgRNA knockout: sgATF3, 100 nM	96.6	83.9	116
sgRNA knockout: sgATF3, 1000 nM	99.1	93.1	69.5
sgRNA knockout: sgATF3, 10000 nM	112	82.4	96.4
sgRNA knockout: sgATF4, 10 nM	84.8	90.2	96.6
sgRNA knockout: sgATF4, 100 nM	99.2	84.6	77
sgRNA knockout: sgATF4, 1000 nM	94.5	85.4	97
sgRNA knockout: sgATF4, 10000 nM	66.1	97.2	82.1
sgRNA knockout: sgATF6, 10 nM	89	84.2	97.6
sgRNA knockout: sgATF6, 100 nM	106	102	112
sgRNA knockout: sgATF6, 1000 nM	84.88	90.3	89.6
sgRNA knockout: sgATF6, 10000 nM	81.3	84.6	78.8
sgRNA knockout: sgATG7, 10 nM	93.9	107	90.5
sgRNA knockout: sgATG7, 100 nM	89.4	78.4	119
sgRNA knockout: sgATG7, 1000 nM	86.3	64.4	104
sgRNA knockout: sgATG7, 10000 nM	94.2	79.8	54.7
sgRNA knockout: sgERN1, 10 nM	91.4	95.1	79.4
sgRNA knockout: sgERN1, 100 nM	85	90	91.9
sgRNA knockout: sgERN1, 1000 nM	81.6	91.5	94.8
sgRNA knockout: sgERN1, 10000 nM	108	92.2	95.6
sgRNA knockout: sgHSF1, 10 nM	94	98.4	–
sgRNA knockout: sgHSF1, 100 nM	79.9	85.3	–
sgRNA knockout: sgHSF1, 1000 nM	96.4	73.8	–
sgRNA knockout: sgHSF1, 10000 nM	118	86.9	–
sgRNA knockout: sgHSF2, 10 nM	99.2	80.2	98.7
sgRNA knockout: sgHSF2, 100 nM	94.4	89.4	112
sgRNA knockout: sgHSF2, 1000 nM	91.5	78.2	122
sgRNA knockout: sgHSF2, 10000 nM	72.3	84.2	81.2
sgRNA knockout: sgKEAP1, 10 nM	108	109	–
sgRNA knockout: sgKEAP1, 100 nM	103	88.7	–
sgRNA knockout: sgKEAP1, 1000 nM	112	77	–
sgRNA knockout: sgKEAP1, 10000 nM	106	74.8	–
sgRNA knockout: sgNFE2L2, 10 nM	84.7	89.2	102
sgRNA knockout: sgNFE2L2, 100 nM	123.1	109	102
sgRNA knockout: sgNFE2L2, 1000 nM	98.3	94.9	117
sgRNA knockout: sgNFE2L2, 10000 nM	91	118	86
sgRNA knockout: sgSLC35F2, 10 nM	81.9	93.4	68.9
sgRNA knockout: sgSLC35F2, 100 nM	111	112	49.6
sgRNA knockout: sgSLC35F2, 1000 nM	108.2	83.5	86.2
sgRNA knockout: sgSLC35F2, 10000 nM	118	79.1	105
sgRNA knockout: sgXBP1, 10 nM	84.4	81	95.1
sgRNA knockout: sgXBP1, 100 nM	91.9	115	110.5
sgRNA knockout: sgXBP1, 1000 nM	96.69	74	118
sgRNA knockout: sgXBP1, 10000 nM	90.4	82.3	85.07
